From PubChem BioAssay AID330 (DTP/NCI, 2004)
The list is a part of this screen's results and no random one: it gathers tests that were run many times, whatever their T/C, doses with no T/C, and many T/C values between a quarter and a half above the control. Other doses and runs of a compound stand elsewhere. T/C: endpoint of the treated group in % of that of the vehicle group. Some doses have a count of surviving animals in place of a T/C: the source holds a T/C of zero for them, seemingly a mark for toxic or unscored doses. Some survivor counts are full or nearly so, which does not show that the dose was tolerated: the source hardly ever lists a survival T/C far under the control, and the zero likely stands for such cases as well. Counts of survivors are from the toxicity check (mostly the fifth day) where no day follows; animals may have died later. Schedules are NCI's codes, read here as Q, the interval in days (D) or hours (H), X, the number of doses. Brackets with × stand for listed records that agree. Some doses were run more than once; the values are given in rising order. Where survival is the endpoint, this PubChem deposit counts one and a half times the control or more as active, and values a quarter to a half above the control carry no call in these data; other NCI protocols may use other cut-offs.

Test system: P388 leukemia ip, CD2F1 mice, survival T/C
Test: NCI In Vivo Anticancer Drug Screen. Data for tumor model P388 Leukemia (intraperitoneal) in CD2F1 (CDF1) mice
Conditions: T/C endpoint: median survival time, higher T/C = longer survival
[1] = dose: 60.0 mg/kg/injection, schedule: Q01DX009 (ip), vehicle: saline
[2] = dose: 50.0 mg/kg/injection, schedule: Q01DX009 (ip), vehicle: saline with Tween-80
[3] = dose: 100.0 mg/kg/injection, schedule: Q01DX009 (ip), vehicle: saline with Tween-80
[4] = dose: 200.0 mg/kg/injection, schedule: Q01DX009 (ip), vehicle: saline with Tween-80
[5] = dose: 200.0 mg/kg/injection, schedule: Q01DX005 (ip), vehicle: saline with Tween-80
[6] = dose: 100.0 mg/kg/injection, schedule: Q01DX009 (ip), vehicle: saline
[7] = dose: 25.0 mg/kg/injection, schedule: Q01DX009 (ip), vehicle: saline
[8] = dose: 200.0 mg/kg/injection, schedule: Q01DX009 (ip), vehicle: Klucel (hydroxypropylcellulose) (HPC)
[9] = dose: 120.0 mg/kg/injection, schedule: Q01DX005 (ip), vehicle: saline with Tween-80
[10] = dose: 240.0 mg/kg/injection, schedule: Q01DX005 (ip), vehicle: saline with Tween-80
[11] = dose: 25.0 mg/kg/injection, schedule: Q01DX009 (ip), vehicle: saline with Tween-80
[12] = dose: 50.0 mg/kg/injection, schedule: Q01DX009 (ip), vehicle: Klucel (hydroxypropylcellulose) (HPC)
[13] = dose: 100.0 mg/kg/injection, schedule: Q01DX009 (ip), vehicle: Klucel (hydroxypropylcellulose) (HPC)

CNC(=O)OCC1=C(COC(=O)NC)C2OC1C(C(=O)OC)=C2C(=O)OC was tested, and the survivor count (dose: 6.25 mg/kg/injection, schedule: Q01DX009 (ip), vehicle: distilled water + Tween-80) was 6 of 6, the survivor count (dose: 12.5 mg/kg/injection, schedule: Q01DX009 (ip), vehicle: distilled water + Tween-80) was 5 of 6 and the survivor count (dose: 25.0 mg/kg/injection, schedule: Q01DX009 (ip), vehicle: distilled water + Tween-80) was 3 of 6 and 5 of 6. The survivor count (dose: 50.0 mg/kg/injection, schedule: Q01DX009 (ip), vehicle: distilled water + Tween-80) was 2 of 6, the survivor count (dose: 100.0 mg/kg/injection, schedule: Q01DX009 (ip), vehicle: distilled water + Tween-80) was 0 of 6 and the survivor count (dose: 200.0 mg/kg/injection, schedule: Q01DX009 (ip), vehicle: distilled water + Tween-80) was 0 of 6.
For COC(=O)NC1C(C)OC(OC2C/C=C(/C)C3C=CC4C(OC5CC(OC6CC(OC7CC(O)C(O)C(C)O7)C(OC7CC(O)C(OC)C(C)O7)C(C)O6)C(O)C(C)O5)C(C)CC(C)C4C3(C)/C(O)=C3\C(=O)OC4(CC(C)C(CO)=CC4/C=C\2C)C3=O)CC1(C)[N+](=O)[O-] (configuration not stated), the T/C (dose: 30.0 mg/kg/injection, schedule: Q01DX009 (ip), vehicle: saline) was 136 % of control, the T/C [1] was 134 % of control and the survivor count [1] was 5 of 5. The survivor count (dose: 120.0 mg/kg/injection, schedule: Q01DX009 (ip), vehicle: saline) was 3 of 6.
In the case of Nc1ccc(F)cc1S, the T/C [2] is reported as 125 and 134 % of control, the T/C [3] is reported as 129 % of control and the T/C [4] is reported as 139 % of control. The survivor count [4] was 5 of 6.
In the case of CCN=C(N)Nc1nc(C)c2cc(Cl)ccc2n1, the survivor count (dose: 100.0 mg/kg/injection, schedule: Q01DX005 (ip), vehicle: saline with Tween-80) is reported as 2 of 6 and the survivor count [5] is reported as 0 of 6.
For O=C(Nc1ccccc1)OCc1ccc(OCc2ccccc2)cc1, the survivor count [4] was 6 of 6.
In the case of O=C(O)c1cc(C(=O)O)c(C(=O)O)cc1C(=O)O.[NH2-].[NH2-].[NH2-].[NH2-].[Pt+2].[Pt+2], the T/C (dose: 3.12 mg/kg/injection, schedule: Q01DX005 (ip), vehicle: saline) is reported as 127 % of control, the T/C (dose: 3.12 mg/kg/injection, schedule: Q01DX005 (ip), vehicle: suspension in saline) is reported as 125 % of control and the T/C (dose: 6.25 mg/kg/injection, schedule: Q01DX005 (ip), vehicle: saline) is reported as 130 % of control. For the same compound, the T/C (dose: 6.25 mg/kg/injection, schedule: Q01DX005 (ip), vehicle: water) was 125 % of control, the T/C (dose: 12.5 mg/kg/injection, schedule: Q01DX005 (ip), vehicle: saline) was 130 and 135 % of control and the T/C (dose: 15.0 mg/kg/injection, schedule: Q01DX005 (ip), vehicle: suspension in saline) was 127 % of control. The T/C (dose: 25.0 mg/kg/injection, schedule: Q01DX005 (ip), vehicle: saline) was 147 % of control, the survivor count (dose: 50.0 mg/kg/injection, schedule: Q01DX005 (ip), vehicle: saline) was 3 of 6 and the survivor count (dose: 69.44 mg/kg/injection, schedule: Q01DX005 (ip), vehicle: suspension in saline) was 1 of 6.
For CCCCCCCCCCCCCC[N+]1([O-])CCCC1, the survivor count [6] was 2 of 6 and the survivor count (dose: 200.0 mg/kg/injection, schedule: Q01DX009 (ip), vehicle: saline) was 0 of 6.
In the case of CC(C)(C)N(OC(=O)c1ccc(Cl)cc1)c1ccccc1, the survivor count [3] is reported as 6 of 6.
With N#CC(C#N)=C(c1ccccc1)c1ccccc1 the survivor count (dose: 400.0 mg/kg/injection, schedule: Q01DX009 (ip), vehicle: Klucel (hydroxypropylcellulose) (HPC)) was 1 of 6.
COc1cccc2c1C(=O)c1c(O)c3c(c(O)c1C2=O)C[C@@](O)(C(=O)O)C[C@@H]3OC1CC(N)C(O)C(C)O1 (some centres not stated) was tested, and the T/C (dose: 6.25 mg/kg/injection, schedule: Q01DX009 (ip), vehicle: water) was 139 % of control, the T/C (dose: 12.5 mg/kg/injection, schedule: Q01DX009 (ip), vehicle: water) was 127 and 139 % of control and the T/C (dose: 25.0 mg/kg/injection, schedule: Q01DX009 (ip), vehicle: water) was 132 and 137 % of control. For the same compound, the T/C (dose: 50.0 mg/kg/injection, schedule: Q01DX009 (ip), vehicle: water) was 149 % of control, the T/C (dose: 75.0 mg/kg/injection, schedule: Q01DX009 (ip), vehicle: water) was 146 % of control and the T/C (dose: 100.0 mg/kg/injection, schedule: Q01DX009 (ip), vehicle: water) was 141 % of control. The T/C (dose: 150.0 mg/kg/injection, schedule: Q01DX009 (ip), vehicle: water) was 149 % of control.
With CC(=O)OC1C(CO)OC2C1Oc1nc(=N)c(F)cn12 (configuration not stated) the T/C (dose: 0.78 mg/kg/injection, schedule: Q01DX009 (ip), vehicle: saline with Tween-80) was 132 % of control, the survivor count (dose: 6.25 mg/kg/injection, schedule: Q01DX009 (ip), vehicle: saline with Tween-80) was 6 of 6 and the survivor count (dose: 12.5 mg/kg/injection, schedule: Q01DX009 (ip), vehicle: saline) was 6 of 6. For the same compound, the T/C [7] was 142 % of control, the survivor count [7] was 6 of 6 and the survivor count (dose: 50.0 mg/kg/injection, schedule: Q01DX009 (ip), vehicle: saline) was 6 of 6. The survivor count [6] was 6 of 6.
For Cc1cnc(C=O)c2cccc([N+](=O)[O-])c12, the survivor count [8] was 5 of 6.
For CSC1=Nc2cccnc2Nc2cscc21, the survivor count [9] was 6 of 6 and the survivor count [10] was 4 of 6.
In the case of CC(C)(C)Oc1ccc(CC(NC(=O)OCC2c3ccccc3-c3ccccc32)C(=O)O)cc1 (configuration not stated), the T/C (dose: 100.0 mg/kg/injection, schedule: Q01DX005 (ip), vehicle: Klucel (hydroxypropylcellulose) (HPC)) is reported as 129 % of control.
c1ccc(Cn2c(-c3ccccc3)c[n+]3ccsc23)cc1 was tested, and the survivor count [11] was 0 of 6 and the survivor count [2] was 0 of 6.
In the case of CNc1nc2c(N)ncnc2n1C1OC(CO)C(O)C1O (configuration not stated), the T/C (dose: 25.0 mg/kg/injection, schedule: Q01DX009 (ip), vehicle: suspension in saline) is reported as 128 % of control, the T/C (dose: 50.0 mg/kg/injection, schedule: Q01DX009 (ip), vehicle: suspension in saline) is reported as 149 % of control and the survivor count [3] is reported as 1 of 3. For the same compound, the survivor count [4] was 0 of 3 and the survivor count (dose: 400.0 mg/kg/injection, schedule: Q01DX009 (ip), vehicle: saline with Tween-80) was 0 of 3.
O=C1C(=O)c2ccccc2C(O)=C1CC=C(Br)Br was tested, and the survivor count [4] was 3 of 6 and the survivor count (dose: 400.0 mg/kg/injection, schedule: Q04DX003 (ip), vehicle: saline with Tween-80) was 3 of 6.
In the case of O=CNCO, the T/C (dose: 2000.0 mg/kg/injection, schedule: Q01DX005 (ip), vehicle: water) is reported as 126 % of control, the T/C (dose: 3000.0 mg/kg/injection, schedule: Q01DX005 (ip), vehicle: water) is reported as 127 % of control and the survivor count (dose: 4000.0 mg/kg/injection, schedule: Q01DX005 (ip), vehicle: water) is reported as 4 of 5.
O=[N+]([O-])c1ccc(N/N=C/c2ccc(Cl)cc2)nc1 was tested, and the survivor count (dose: 25.0 mg/kg/injection, schedule: Q01DX009 (ip), vehicle: Klucel (hydroxypropylcellulose) (HPC)) was 6 of 6, the survivor count [11] was 6 of 6 and the survivor count [12] was 6 of 6. The survivor count [2] was 6 of 6 (2×), the survivor count [13] was 6 of 6 and the survivor count [3] was 6 of 6 (2×).
O=C(O)CCCCCCCCC(=O)CCl was tested, and the survivor count [6] was 5 of 6.
With CCc1nc(N)nc(N)c1-c1ccc([N+](=O)[O-])cc1 the survivor count [5] was 0 of 6.
CC(C)Cc1ncc(CC(C)C)n(O)c1=O was tested, and the survivor count (dose: 200.0 mg/kg/injection, schedule: Q01DX005 (ip), vehicle: distilled water + Tween-80) was 0 of 6.
For Clc1cc2nc[nH]c2cc1Cl, the survivor count [4] was 3 of 6.
O=[N+]([O-])c1ccc(Sc2ncnc3nc[nH]c23)c2nonc12 was tested, and the survivor count [12] was 0 of 6, the survivor count [13] was 0 of 6 and the survivor count [8] was 0 of 6.
With c1ccc2c(c1)OCc1nccn1-2 the survivor count (dose: 240.0 mg/kg/injection, schedule: Q01DX005 (ip), vehicle: Klucel (hydroxypropylcellulose) (HPC)) was 1 of 6.
For C[N+]1(CCC(=O)c2ccccc2)CCOCC1, the survivor count [6] was 6 of 6.
With N#CCc1c(F)c(F)c(F)c(F)c1F the survivor count [9] was 1 of 6 and 3 of 6 and the survivor count [10] was 0 of 6.
